Microarray screen: hit calls

Source: the ROBIN nucleic acid binder screens (doi:10.1002/anie.202211358).

Targets, with sequences 5′ to 3′:
T1: SAM-II riboswitch RNA pseudoknot, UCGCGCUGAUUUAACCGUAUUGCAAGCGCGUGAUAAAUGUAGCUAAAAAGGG. Hit rate about 1% of about 21,000 compounds.
T2: TPP riboswitch RNA three-way junction, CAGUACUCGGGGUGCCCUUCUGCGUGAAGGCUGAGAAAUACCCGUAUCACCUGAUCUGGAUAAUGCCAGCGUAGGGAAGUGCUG. Hit rate about 0.7% of about 24,000 compounds.
T3: PreQ1 riboswitch RNA pseudoknot, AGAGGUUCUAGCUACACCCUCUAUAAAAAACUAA. From B. subtilis. Hit rate about 0.7% of about 24,000 compounds.

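Compounds were printed on reactive glass slides in duplicate spots, a dye-labelled oligonucleotide was laid over them, and the fluorescence left after washing was read. For the PreQ1, TPP and SAM-II riboswitches the laboratory earlier reported (doi:10.1038/s41467-019-09493-3) 1 µM RNA, 2 h, and a rule that included a mean Z-score above 3 (spot signal-to-noise against the whole library), a score well above that on a control array, and duplicate spots agreeing (coefficient of variation under 100). The data file gives only the calls; its cut-offs may differ, and compounds hitting several targets are kept. These are primary screening calls, not affinities; a compound without a hit may have attached poorly or may still bind in solution.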 A compound is marked active if it was called a hit and inactive if it was screened but was not. This is an unselected part of the compounds tested. A target missing from an entry has no call listed here. A dash means that no call is listed here.

structure: O=C(Nc1cccnc1)c1cccc([N+](=O)[O-])c1
T1: inactive
T2: inactive
T3: inactive

structure: O=C1OC(Nc2cccc(F)c2)c2ccccc21 (configuration not stated)
T1: inactive
T2: inactive
T3: inactive

structure: COC(=O)c1ccc(NC(=O)N2CCCCC2CO)c(C)c1 (configuration not stated)
T1: inactive
T2: inactive
T3: inactive

structure: CC(=O)ONC1=c2ccccc2=NC1=C1C(=O)Nc2cc(Br)ccc21
T1: inactive
T2: inactive
T3: inactive

structure: CCOC(=O)N1CCC(Nc2c(N3CCN(c4cc(C)ccc4C)CC3)c(=O)c2=O)CC1
T2: inactive
T3: inactive

structure: CN(Cc1cnn(-c2ccc(F)cc2)c1)c1nccc(N2CCC(O)C2)n1 (configuration not stated)
T1: inactive
T2: inactive
T3: inactive

structure: OCCCc1nc2ccccc2n1Cc1c(F)cccc1Cl
T2: active
T3: inactive

structure: Cn1cc(-c2ccncc2)c(-c2ccc(OCc3ccc4ccccc4n3)cc2)n1
T1: inactive
T2: inactive
T3: inactive

structure: Nc1cccc(-n2ncc3c(Cl)cccc32)n1
T1: inactive
T2: inactive
T3: inactive

structure: Cc1ccc(CN(CCO)C(=O)c2cnc(Nc3ccccc3)nc2)s1
T1: inactive
T2: inactive
T3: inactive

structure: COC(=O)C1=C(N)OC2=C(C(=O)CCC2)C1c1ccc(SC)cc1 (configuration not stated)
T1: inactive
T2: inactive
T3: inactive

structure: COc1ccc(C2CC(C(F)(F)F)n3nc(C(=O)Nc4ccc(C(C)O)cc4)cc3N2)cc1 (configuration not stated)
T1: inactive
T2: inactive
T3: inactive

structure: CCC(=O)NC(Nc1ccccc1C(F)(F)F)C(Cl)(Cl)Cl (configuration not stated)
T1: inactive
T2: inactive
T3: inactive

structure: CC(C)c1cc(C(=O)NC(C)(CO)CO)n(C)n1
T1: inactive
T2: inactive
T3: inactive

structure: Nc1nc(SCc2ccc(F)cc2)ns1
T1: inactive
T2: inactive
T3: inactive

structure: CC(C)NC(C(=O)O)c1c[nH]c2ccc(Br)cc12 (configuration not stated)
T1: inactive
T2: inactive
T3: inactive

structure: COc1ccc(Cl)cc1Nc1cc(C)nc2nc(-c3cccnc3)nn12
T2: inactive
T3: inactive

structure: CN1CCN(c2nc(-c3ccccc3)ccc2C(=O)O)CC(O)C1 (configuration not stated)
T1: inactive
T2: inactive
T3: inactive

structure: O=C(c1cn(-c2ccccc2)nn1)N1CCC(C(O)c2ccccn2)CC1 (configuration not stated)
T1: inactive
T2: inactive
T3: inactive

structure: OCC#Cc1csc(CN2CCn3cncc3C2)c1
T1: inactive
T2: inactive
T3: inactive

structure: CCCCNc1nc(Oc2ccc(O)nn2)nc(N(CC)CC)n1
T2: inactive
T3: inactive

structure: Cc1ccc(C)c(NCCOc2ccccc2)c1
T1: inactive
T2: inactive
T3: inactive

structure: COc1ccc(C)cc1NC(c1nnc(-c2ccccc2)o1)c1ccccc1F (configuration not stated)
T1: inactive
T2: inactive
T3: inactive

structure: CC1=C(c2ccc(C)cc2)S(=O)(=O)N=C1NCCCN1CCN(Cc2ccccc2)CC1
T2: inactive
T3: inactive

structure: NCCNC(=O)c1nc(Cn2cc(Br)cn2)no1
T1: inactive
T2: inactive
T3: inactive

structure: Cc1ccc(NC(=O)c2nnn(Cc3ccc(Br)cc3F)c2N)c(C)c1
T1: inactive
T2: inactive
T3: inactive

structure: CCc1c(C)nc(N)nc1N1CC(c2nc3ccccc3[nH]2)C1
T1: inactive
T2: inactive
T3: inactive

structure: CCOC(=O)C1CCCN(c2c(NCC3CCCN3CC)c(=O)c2=O)C1 (configuration not stated)
T2: inactive
T3: inactive

structure: CCc1c(C)cc(C(=O)N2CCCC(Nc3ccc(OC)cc3)C2)c(=O)n1C (configuration not stated)
T1: inactive
T2: inactive
T3: inactive

structure: CCc1nc(C)c(C(=O)N2CC[C@@H](c3sccc3C)[C@H](O)C2)o1
T1: inactive
T2: inactive
T3: inactive

structure: COC(=O)C(Nc1cc(C)nc2nc(Cc3ccccc3)nn12)c1ccccc1 (configuration not stated)
T2: inactive
T3: inactive

structure: COc1cc(CNCc2cccnc2)ccc1Oc1nnnn1-c1ccccc1.Cl
T1: inactive
T2: inactive
T3: inactive

structure: COc1ccc(-c2c(C)nn(Cc3ccccc3)c2N)cc1
T2: inactive
T3: inactive

structure: COc1cccc(Cl)c1-c1cc(CO)ccn1
T1: inactive
T2: inactive
T3: inactive

structure: CC(C)(O)CCc1cccc(C(=O)NCCc2nc(N)cc(O)n2)c1
T1: inactive
T2: inactive
T3: inactive

structure: CNC(=O)c1ccc(N2C(=S)N(c3ccc(C#N)c(C(F)(F)F)c3)C(=O)C2(C)C)cc1F
T1: inactive
T2: inactive
T3: inactive

structure: O=C(NC(CO)c1ccccc1)c1c[nH]c(=O)c2ccccc12 (configuration not stated)
T1: inactive
T2: inactive
T3: inactive

structure: Cc1cccc2cc(-c3noc(C(C)C)n3)c(NCc3ccco3)nc12
T2: inactive
T3: inactive

structure: CCn1c(N)c(C(=O)NC2CCCCC2)sc1=S
T1: inactive
T2: inactive
T3: inactive

structure: O=C(c1ccc(CO)o1)N1CCC(C(O)Cc2ccccc2)CC1 (configuration not stated)
T1: inactive
T2: inactive
T3: inactive

structure: C[C@@]1(O)CCN(C(=O)Cc2cncs2)C[C@@H]1O
T1: inactive
T2: inactive
T3: inactive

The last 4 entries again:

structure	T1	T2	T3
Cc1cccc2cc(-c3noc(C(C)C)n3)c(NCc3ccco3)nc12	-	inactive	inactive
CCn1c(N)c(C(=O)NC2CCCCC2)sc1=S	inactive	inactive	inactive
O=C(c1ccc(CO)o1)N1CCC(C(O)Cc2ccccc2)CC1 (configuration not stated)	inactive	inactive	inactive
C[C@@]1(O)CCN(C(=O)Cc2cncs2)C[C@@H]1O	inactive	inactive	inactive